Values quoted from earlier work in patent US6773719B2, “Liposomal compositions, and methods of using liposomal compositions to treat dislipidemias” (Esperion LUV Development, Inc., priority 1994, dated 2004).
For at least one compound, name, drawing or mass did not settle the structure.

Settings: cardiac transplant recipients

CC[C@H](C)C(=O)O[C@H]1C[C@H](O)C=C2C=C[C@H](C)[C@H](CC[C@@H](O)C[C@@H](O)CC(=O)O)[C@H]21 [pravastatin]
died in the first year: 6%
